Measurements reported in PubChem BioAssay AID1259424 (University of Nebraska Medical Center, 2018).
This is an unselected part of about 14,000 reagents. 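Higher correlation or smaller distance means closer resemblance to KSR1 loss; control wells, including KSR1 knockdowns, recur on many plates.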 The numbers tell different reagents against one gene apart. Further read-outs or replicates are left out here. The record does not give: the time to read-out.

Assay: 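Find knockdowns that reproduce the expression shifts seen after KSR1 loss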 (primary screen)
System: human HCT116 colon cancer cells
Knock-down reagent: siRNA pool against human genes, 50 nM
Measurement: 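Six signature mRNAs by branched-DNA multiplex assay, scaled to two housekeeping genes and non-targeting median, log2; matched to mean KSR1 knockdown profile by Pearson correlation and euclidean distance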
Direction: mean correlation with KSR1 profile and KSR1 correlation: higher = expression change more like KSR1 knockdown; mean distance from KSR1 profile: higher = expression change less like KSR1 knockdown

mean correlation with KSR1 profile	mean distance from KSR1 profile	KSR1 correlation, replicate 1	KSR1 correlation, replicate 2	target gene	reagent no.
-0.245	2.61	0.025	-0.598	NAE1 (GeneID 8883)	1
-0.0302	2.89	-0.0473	0.081	EFNB3 (GeneID 1949)	1
-0.0103	2.26	0.159	-0.0218	BCAN (GeneID 63827)	1
0.451	1.34	0.251	-0.376	RPS3 (GeneID 6188)	1
-0.728	2.5	-0.592	-0.675	NUCLEOLIN (GeneID 4691)	1
0.574	1.52	0.48	0.42	DRICH1 (GeneID 51233)	1
-0.234	5.82	0.0302	-0.392	EIF2S1 (GeneID 1965)	1
-0.742	2.17	-0.678	-0.827	CDC42 (GeneID 998)	1
0.718	1.49	0.871	0.507	LZTS2 (GeneID 84445)	1
0.209	3.79	0.35	0.0608	WRN (GeneID 7486)	1
-0.179	2.59	-0.239	-0.128	GTF2H2 (GeneID 2966)	1
-0.663	1.92	-0.76	-0.56	NAA35 (GeneID 60560)	1
0.108	1.87	0.112	0.0509	GLS2 (GeneID 27165)	1
-0.72	3.18	-0.749	-0.733	SPTBN1 (GeneID 6711)	1
-0.268	2.6	-0.118	-0.469	ADGRF1 (GeneID 266977)	1
0.408	1.55	0.188	0.626	ADGRF1 (GeneID 266977)	2
-0.685	1.43	-0.817	-0.391	NUP133 (GeneID 55746)	1
0.807	2.47	0.734	0.726	UQCR10 (GeneID 29796)	1
0.0166	2.03	0.19	0.0445	NTRK1 (GeneID 4914)	1
0.253	4.21	0.0847	0.549	ZNF70 (GeneID 7621)	1
-0.516	3.16	-0.353	-0.551	FOXK2 (GeneID 3607)	1
0.39	2.44	0.427	0.323	MS4A3 (GeneID 932)	1
0.309	2.41	0.377	0.333	TAGLN2 (GeneID 8407)	1
0.385	1.29	0.273	0.104	HBQ1 (GeneID 3049)	1
-0.142	1.73	-0.0868	0.00896	CNN1 (GeneID 1264)	1
0.693	0.733	0.635	0.539	TDP2 (GeneID 51567)	1
0.216	4.06	0.278	0.292	KHNYN (GeneID 23351)	1
-0.0106	1.81	0.0234	0.446	ABHD5 (GeneID 51099)	1
0.619	1.88	0.602	0.675	VN1R10P (GeneID 387316)	1
0.27	5.09	0.381	0.405	ADAMTS2 (GeneID 9509)	1
-0.28	2.24	-0.0484	-0.5	LPXN (GeneID 9404)	1
-0.0582	1.21	-0.102	0.0633	APIP (GeneID 51074)	1
0.471	2.02	0.507	0.539	RRH (GeneID 10692)	1
0.436	1.56	0.628	0.382	EXD3 (GeneID 54932)	1
0.378	2.27	0.4	0.538	VEGFD (GeneID 2277)	1
-0.675	2.46	-0.518	-0.702	B4GALT3 (GeneID 8703)	1
0.0455	3.79	0.0275	0.236	CORO2A (GeneID 7464)	1
-0.72	3.83	-0.733	-0.582	PARP6 (GeneID 56965)	1
-0.429	8.14	0.0835	-0.356	OGFOD1 (GeneID 55239)	1
0.192	3.86	0.185	0.204	SH3BGR (GeneID 6450)	1
0.386	1.7	0.401	0.557	SCAF8 (GeneID 22828)	1
-0.00885	1.58	0.179	-0.0974	COMP (GeneID 1311)	1
-0.312	1.36	0.0775	-0.438	ENOX1 (GeneID 55068)	1
-0.0344	2.46	-0.169	0.0347	XPNPEP3 (GeneID 63929)	1
0.573	1.72	0.0708	0.253	KCNIP4 (GeneID 80333)	1
0.00586	2.85	0.129	0.204	CAMKV (GeneID 79012)	1
-0.682	2.59	-0.538	-0.737	CDCA7L (GeneID 55536)	1
-0.0156	3.4	-0.0434	-0.0461	ATP2A2 (GeneID 488)	1
0.724	1.53	0.621	0.743	ASB13 (GeneID 79754)	1
0.146	2.19	0.068	0.0934	C6orf62 (GeneID 81688)	1
